Literature values, collected in patent publication US20120142623A1, “Compositions And Methods For Predicting Inhibitors Of Protein Targets” (priority 2006, published 2012).
At least one compound was matched to its structure with a doubt left.

Test system: HIV-1
Conditions: HIV-1, target Unknown; read-out: Inhibitory effect (uM), EC50, target Unknown; cited from earlier work

CN(C)c1ccc(O)c2c1C[C@H]1C[C@H]3[C@H](N(C)C)C(O)=C(C(N)=O)C(=O)[C@@]3(O)C(O)=C1C2=O [Minocycline]
EC50: < 22 µM
